Measurements reported in PubChem BioAssay AID1259308 (NCATS, 2017).
Shown is an unselected part of about 59,000 deposited reagents. In the full data, about 1,510 (2.6%) got an active call. 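Calls use total luciferase alone and ignore viability, so some active siRNAs may act by altering cell number.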 A number with no mark means an inactive call. The numbers tell different reagents against one gene apart. Not all columns of the deposit are shown.

Test: 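Knock-downs that increase output of a recombinant reporter protein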 (primary screen)
Cells: human HEK293 embryonic kidney cells stably expressing firefly luciferase (HEK-CMV-Luc2-Hygro)
Reagents: single siRNA against human genes, 0.8 pmol siRNA per well
Duration: 72 h
Read-out: 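Reporter luminescence and viable-cell signal on separate replicate plates, given as percent of non-targeting control and median/MAD z-scores, plus per-cell luciferase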
Reading the numbers: total luciferase, z-score and total luciferase, % of control: higher = more reporter protein produced
Active means: 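Active when the median/MAD z-score for overall luciferase is greater than 3; a gene was taken forward for validation with new siRNAs if at least two of its three siRNAs passed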
Meaning of the calls: active = raised luciferase; inactive = no rise

HCG22 (HLA complex group 22) #1 gave total luciferase, z-score -0.381; total luciferase, % of control 74.3.
HCG22 (HLA complex group 22) #2 gave total luciferase, z-score 1.36; total luciferase, % of control 109.
HCG22 (HLA complex group 22) #3 gave total luciferase, z-score 1.16; total luciferase, % of control 105.
ACAP3 (ArfGAP with coiled-coil, ankyrin repeat and PH domains 3) #1 showed total luciferase, z-score -1.37; total luciferase, % of control 54.6.
Knock-down of ACAP3 (ArfGAP with coiled-coil, ankyrin repeat and PH domains 3) #2 gave: total luciferase, z-score -0.35; total luciferase, % of control 74.9.
After knock-down of ACAP3 (ArfGAP with coiled-coil, ankyrin repeat and PH domains 3) #3, the record shows total luciferase, z-score -0.495; total luciferase, % of control 72.
Against OR7D4 (olfactory receptor family 7 subfamily D member 4) #1 the deposit lists total luciferase, z-score -1.63; total luciferase, % of control 49.4.
After knock-down of OR7D4 (olfactory receptor family 7 subfamily D member 4) #2, the screen gave total luciferase, z-score -1.03; total luciferase, % of control 61.5.
OR7D4 (olfactory receptor family 7 subfamily D member 4) #3 scored total luciferase, z-score 0.601; total luciferase, % of control 93.8.
MED13 (mediator complex subunit 13) #1 scored total luciferase, z-score -0.916; total luciferase, % of control 63.7.
After knock-down of MED13 (mediator complex subunit 13) #2, the record shows total luciferase, z-score -0.139; total luciferase, % of control 79.1.
With knock-down of MED13 (mediator complex subunit 13) #3, the screen gave total luciferase, z-score -0.201; total luciferase, % of control 77.9.
Knock-down of GDI1 (GDP dissociation inhibitor 1) #1 resulted in: total luciferase, z-score 1.04; total luciferase, % of control 103.
Against GDI1 (GDP dissociation inhibitor 1) #2, the values are total luciferase, z-score 0.423; total luciferase, % of control 90.3.
After knock-down of GDI1 (GDP dissociation inhibitor 1) #3 the results were total luciferase, z-score 1.97; total luciferase, % of control 121.
With knock-down of PPP1R14C (protein phosphatase 1 regulatory inhibitor subunit 14C) #1 the results were total luciferase, z-score 0.381; total luciferase, % of control 89.5.
Depletion of PPP1R14C (protein phosphatase 1 regulatory inhibitor subunit 14C) #2 came out at: total luciferase, z-score -1.37; total luciferase, % of control 54.6.
Against PPP1R14C (protein phosphatase 1 regulatory inhibitor subunit 14C) #3, the values are total luciferase, z-score 1.82; total luciferase, % of control 118.
With knock-down of DOP1B (DOP1 leucine zipper like protein B) #1, the screen gave total luciferase, z-score 0.644; total luciferase, % of control 94.7.
With knock-down of DOP1B (DOP1 leucine zipper like protein B) #2, the record shows total luciferase, z-score 0.162; total luciferase, % of control 85.1.
DOP1B (DOP1 leucine zipper like protein B) #3 showed total luciferase, z-score -0.515; total luciferase, % of control 71.6.
For NCAM2 (neural cell adhesion molecule 2) #1 the deposit lists total luciferase, z-score -0.861; total luciferase, % of control 64.8.
With knock-down of NCAM2 (neural cell adhesion molecule 2) #2 the results were total luciferase, z-score -0.806; total luciferase, % of control 65.8.
NCAM2 (neural cell adhesion molecule 2) #3 showed total luciferase, z-score 0.923; total luciferase, % of control 100.
Silencing of THBS3 (thrombospondin 3) #1 resulted in: total luciferase, z-score 0.138; total luciferase, % of control 84.6.
Against THBS3 (thrombospondin 3) #2, the values are total luciferase, z-score 0.99; total luciferase, % of control 102.
Against THBS3 (thrombospondin 3) #3 the deposit lists total luciferase, z-score -0.909; total luciferase, % of control 63.8.
CDKN3 (cyclin dependent kinase inhibitor 3) #1 gave total luciferase, z-score 0.415; total luciferase, % of control 90.1.
Silencing of CDKN3 (cyclin dependent kinase inhibitor 3) #2 resulted in: total luciferase, z-score 0.739; total luciferase, % of control 96.6.
After knock-down of CDKN3 (cyclin dependent kinase inhibitor 3) #3 the results were total luciferase, z-score 0.311; total luciferase, % of control 88.1.
For ZNF653 (zinc finger protein 653) #1, the values are total luciferase, z-score -1.5; total luciferase, % of control 52.
Silencing of ZNF653 (zinc finger protein 653) #2 gave: total luciferase, z-score -0.187; total luciferase, % of control 78.2.
ZNF653 (zinc finger protein 653) #3 gave total luciferase, z-score -0.112; total luciferase, % of control 79.7.

3 of these entries in another layout:
Target gene,siRNA no.,"total luciferase, z-score","total luciferase, % of control"
CDKN3 (cyclin dependent kinase inhibitor 3),2,0.739,96.6
CDKN3 (cyclin dependent kinase inhibitor 3),3,0.311,88.1
ZNF653 (zinc finger protein 653),1,-1.5,52
